doi:10.1101/2023.07.25.550451
No constants are given. Whether binding was seen depends on the method and setting. Some results given as binding are weak or reduced against the parent protein; the word gives no strength.

Chains of the proteins cited; added tags and fusions are not shown. Lines headed by an entry give the natural chain unless they say otherwise; changes in a name come on top. A line that says so, or that is headed by a name, gives the form on record, which may keep a tag or linker.
UniProt Q969W3: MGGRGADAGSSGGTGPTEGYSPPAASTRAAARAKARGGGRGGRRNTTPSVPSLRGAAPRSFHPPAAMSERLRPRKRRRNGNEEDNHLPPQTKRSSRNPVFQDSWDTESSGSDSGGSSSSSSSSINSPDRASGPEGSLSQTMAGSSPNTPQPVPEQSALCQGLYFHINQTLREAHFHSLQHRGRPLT
GST-FAM104A isoform 1 (Q969W3, form named): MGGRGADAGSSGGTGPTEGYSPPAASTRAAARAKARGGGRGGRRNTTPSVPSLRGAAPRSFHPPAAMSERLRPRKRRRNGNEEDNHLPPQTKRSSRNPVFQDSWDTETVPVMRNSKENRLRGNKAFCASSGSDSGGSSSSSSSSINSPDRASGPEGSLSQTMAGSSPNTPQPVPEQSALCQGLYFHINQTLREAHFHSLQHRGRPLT
GST-FAM104B isoform 3 (Q5XKR9-3, form named): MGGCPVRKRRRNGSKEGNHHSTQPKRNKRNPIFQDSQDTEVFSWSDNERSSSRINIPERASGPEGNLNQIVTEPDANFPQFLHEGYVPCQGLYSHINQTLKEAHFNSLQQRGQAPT
UniProt Q9UNN5: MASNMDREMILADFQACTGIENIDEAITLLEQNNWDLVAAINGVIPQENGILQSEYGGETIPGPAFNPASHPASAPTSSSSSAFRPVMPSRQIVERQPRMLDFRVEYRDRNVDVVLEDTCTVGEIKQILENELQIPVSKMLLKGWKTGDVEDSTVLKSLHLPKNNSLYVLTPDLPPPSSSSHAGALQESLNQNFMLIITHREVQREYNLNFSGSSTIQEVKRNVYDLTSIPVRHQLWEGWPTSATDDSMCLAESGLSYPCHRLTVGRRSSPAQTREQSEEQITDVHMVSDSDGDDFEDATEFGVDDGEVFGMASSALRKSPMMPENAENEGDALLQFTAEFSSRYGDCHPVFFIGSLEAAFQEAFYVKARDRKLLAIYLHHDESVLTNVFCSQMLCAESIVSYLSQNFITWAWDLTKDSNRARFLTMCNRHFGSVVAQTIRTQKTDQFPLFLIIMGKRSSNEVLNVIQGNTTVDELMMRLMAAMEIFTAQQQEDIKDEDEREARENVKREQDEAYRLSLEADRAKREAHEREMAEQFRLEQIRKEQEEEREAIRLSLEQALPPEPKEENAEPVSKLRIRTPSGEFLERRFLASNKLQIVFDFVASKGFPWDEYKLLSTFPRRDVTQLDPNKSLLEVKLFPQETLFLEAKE

Columns and labels:
[1] = target: GST-FAM104A isoform 1 (human) (UniProt Q969W3); test: pull-down
[2] = target: GST-FAM104A isoform 2 (human) (UniProt Q969W3); test: pull-down
[3] = target: GST-FAM104B isoform 3 (human) (UniProt Q5XKR9); test: pull-down
[4] = target: p97 (two-hybrid fusion in pGBDU-C1) (human) (UniProt P55072); test: two-hybrid

Substance: His6-FAF1 (from UniProt Q9UNN5 1-650)
- binding [1]: binds
- binding [2]: binds
- binding [3]: no binding (tested: 0.5 nmole His6-FAF1)

Substance: FAM104B isoform 3, full-length (two-hybrid fusion in pGAD-C1) (from UniProt Q5XKR9-3 1-116)
- binding [4]: binds

Substance: p97, wild-type, full-length (recombinant) (from UniProt P55072 1-806)
- binding [3]: binds
